{"source": "paper PMC7526551", "about": "(JCI Insight, 2020)", "molecules": {"B1": {"name": "importin-α3 (residues 1–520), recombinant (domain or fragment, UniProt O00629 1-520, looked up)", "chain": "MADNEKLDNQRLKNFKNKGRDLETMRRQRNEVVVELRKNKRDEHLLKRRNVPHEDICEDSDIDGDYRVQNTSLEAIVQNASSDNQGIQLSAVQAARKLLSSDRNPPIDDLIKSGILPILVHCLERDDNPSLQFEAAWALTNIASGTSEQTQAVVQSNAVPLFLRLLHSPHQNVCEQAVWALGNIIGDGPQCRDYVISLGVVKPLLSFISPSIPITFLRNVTWVMVNLCRHKDPPPPMETIQEILPALCVLIHHTDVNILVDTVWALSYLTDAGNEQIQMVIDSGIVPHLVPLLSHQEVKVQTAALRAVGNIVTGTDEQTQVVLNCDALSHFPALLTHPKEKINKEAVWFLSNITAGNQQQVQAVIDANLVPMIIHLLDKGDFGTQKEAAWAISNLTISGRKDQVAYLIQQNVIPPFCNLLTVKDAQVVQVVLDGLSNILKMAEDEAETIGNLIEECGGLEKIEQLQNHENEDIYKLAYEIIDQFFSSDDIDEDPSLVPEAIQGGTFGFNSSANVPTEGFQ", "notes": "importin-α3 (KPNA4), residues 1–520, codon-optimized synthetic vector (Nzytech); called a 58 kDa protein with 6 tryptophans; also called KPNA4; importin-alpha3; source: final Superdex G200 16/60"}, "B2": {"name": "NUPR1 (recombinant, purified) (natural protein, UniProt O60356 1-82, looked up)", "chain": "MATFPPATSAPQQPPGPEDEDSSLDESDLYSLAHSYLGGGGRKGRTKREAAANTNRPSPGGHERKLVTKLQNSERKKRGARR", "notes": "Nuclear Protein 1 (NUPR1), described as an intrinsically disordered protein of 82 amino acids with two tyrosines (Tyr30, Tyr36); also called Nuclear Protein 1; rNUPR1; source: expressed and purified as described (12)"}}, "key": {"[1]": {"target": "T1, NUPR1 (endogenous, MiaPaCa-2 cells) (human (endogenous in MiaPaCa-2)) (UniProt O60356)", "T1 sequence": "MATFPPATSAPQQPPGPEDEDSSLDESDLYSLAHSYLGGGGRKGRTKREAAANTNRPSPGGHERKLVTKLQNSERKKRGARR", "assay": "proximity ligation; Duolink In Situ on fixed, permeabilized MiaPaCa-2 cells (transfected with importin-α3–Flag or NUPR1-Flag, or untransfected); mouse anti-Flag or anti-γH2AX with rabbit anti-NUPR1, anti-MRE11 or anti-TP53; cells untreated or treated with ZZW-115 (5 μM, 6 h; or 1.5 μM, 24 h), 5-FU (10 μM, 24 h) or …"}, "[2]": {"target": "T2, NUPR1 (recombinant, purified) (UniProt O60356)", "T2 sequence": "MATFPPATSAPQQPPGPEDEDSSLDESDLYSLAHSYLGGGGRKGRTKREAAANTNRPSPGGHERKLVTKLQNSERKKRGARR", "assay": "intrinsic fluorescence spectra (complex against the sum of the isolated proteins); 25°C, 10 μM NUPR1 and 5 μM importin-α3, excitation at 280 or 295 nm; both purified"}, "[3]": {"target": "importin-α3 (residues 1–520), recombinant (UniProt O00629)", "assay": "ITC; reverse titration: NUPR1 in the syringe, importin-α3 in the calorimetric cell, Tris 50 mM pH 8, 25°C; both purified"}}, "note": "These are yes or no findings as the source states them, for the method shown. For part of these data: Binding seen in cells or lysates may run through a third protein. Some results given as binding are weak or reduced against the parent protein; the word gives no strength.", "data": [{"molecule": "importin-α3–Flag (from UniProt O00629 1-521)", "values": [{"measurement": "binding", "setting": "[1]", "value": "binds"}]}, {"molecule": "B1", "values": [{"measurement": "binding", "setting": "[2]", "value": "binds"}]}, {"molecule": "B2", "values": [{"measurement": "binding", "setting": "[3]", "value": "binds"}]}]}
